Like-named read-outs stand apart in the source and are kept apart here. No constants are given. Whether binding was seen depends on the method and setting. Some results given as binding are weak or reduced against the parent protein; the word gives no strength.

Protein sequences, listed by entry. Tags and fused reporters are not part of them. Lines headed by an entry give the natural chain unless they say otherwise; changes in a name come on top.
UniProt P06612: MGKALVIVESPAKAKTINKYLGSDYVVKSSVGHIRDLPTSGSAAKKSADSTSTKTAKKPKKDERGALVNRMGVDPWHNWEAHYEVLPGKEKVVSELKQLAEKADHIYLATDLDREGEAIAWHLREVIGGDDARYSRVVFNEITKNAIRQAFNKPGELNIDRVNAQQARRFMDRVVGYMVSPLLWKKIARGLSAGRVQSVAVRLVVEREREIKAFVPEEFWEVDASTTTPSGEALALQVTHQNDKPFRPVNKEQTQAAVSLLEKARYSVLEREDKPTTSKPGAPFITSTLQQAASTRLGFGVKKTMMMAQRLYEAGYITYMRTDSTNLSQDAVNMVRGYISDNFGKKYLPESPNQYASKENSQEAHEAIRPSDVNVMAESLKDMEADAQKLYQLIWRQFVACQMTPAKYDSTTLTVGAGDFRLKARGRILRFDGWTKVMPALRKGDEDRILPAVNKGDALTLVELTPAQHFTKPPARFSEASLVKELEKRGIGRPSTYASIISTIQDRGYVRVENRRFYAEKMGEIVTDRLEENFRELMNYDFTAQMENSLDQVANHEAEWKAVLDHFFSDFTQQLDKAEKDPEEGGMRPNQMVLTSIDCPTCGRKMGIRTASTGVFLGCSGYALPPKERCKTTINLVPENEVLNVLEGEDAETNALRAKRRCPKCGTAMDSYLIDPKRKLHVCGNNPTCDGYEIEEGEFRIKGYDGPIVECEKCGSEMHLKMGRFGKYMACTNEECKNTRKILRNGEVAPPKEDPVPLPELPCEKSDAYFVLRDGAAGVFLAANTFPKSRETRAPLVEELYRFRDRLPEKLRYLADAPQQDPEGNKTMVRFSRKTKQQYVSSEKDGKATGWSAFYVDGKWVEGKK

For experiment [1], the target named is PrS-TopAI (N-terminal domain of Protein S fused to TopAI, His-tagged) (E. coli) (UniProt Q2EEU2). Put plainly: co-IP; purified PrS-TopAI and TopA, TopA67 or TopA14 at a molar ratio of 1:5 in buffer A (20 mM Tris-HCl pH 8.0, 150 mM NaCl), in the absence of DNA; anti-protein S antiserum, protein G agarose, 4°C; western blot with anti-His antibody; both purified. A general note: A western blot detects proteins with antibodies after separation by electrophoresis.

The target is the same in experiment [2]. The description is as above. This is another data set of the same source.
For experiment [3], the target named is DNA topoisomerase I (New England Biolab) (E. coli) (UniProt P06612). Put plainly: native gel or EMSA; relaxation reaction of supercoiled pUC19 (0.6 μg) with 50 nM topoisomerase I and PrS-TopAI, 30 min 37°C, stopped by EDTA; 1.0% agarose gel; DNA stacked on the top of the gel; both purified.

For “His-tagged TopA (topoisomerase I, full length) (from UniProt P06612 1-865) (enzyme)”, the binding result in experiment [1] was “no binding (condition: in the absence of plasmid DNA)”; in experiment [2], “binds weakly”.

With “His-tagged TopA14 (C-terminal region of TopA, 14 kDa, residues 745-865) (from UniProt P06612 745-865) (domain or fragment)”, the binding entry in experiment [2] is “no binding”.

For the substance “PrS-TopAI (N-terminal domain of Protein S fused to TopAI, His-tagged) (from UniProt Q2EEU2 1-85)”, in experiment [3], the binding entry was “binds”.

Source of the values: publication PMC4666372.
